The list shows a part of the results.
Legend:
Assay in all cases: log2 fold change, soluble protein after heating vs DMSO (PISA); higher = thermal stabilisation; K562 lysate, 10 uM; active = over 0.2 and 3.5 SD of the protein, either way, in both replicates (recomputed)
[1] = compound: CS(=O)(=O)CCNCc1ccc(-c2ccc3ncnc(Nc4ccc(OCc5cccc(F)c5)c(Cl)c4)c3c2)o1 [lapatinib]
Summary of the method: (§1)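 Dounce homogenisation of K562 pellets in PBS pH 7.4 with 1 mM MgCl2 produced a crude extract, used at 1 mg/mL protein. Exposure to 10 μM compound lasted 30 min, and aliquots were then heated for 3 min across 48°C-58°C, pooled and brought to 0.5% NP-40 at 4°C. The supernatant after 21,000xg for 90 min was quantified by TMTpro 16plex LC-MS/MS with channel sums equalised. Duplicate values are given as log-two fold change in thermal stability relative to solvent controls.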

Sequences of proteins named here, by UniProt entry; tags and fusion partners are left off. A change or cut given only in a name is not applied to a line headed by its entry.
UniProt Q641Q2, whole entry, looked up: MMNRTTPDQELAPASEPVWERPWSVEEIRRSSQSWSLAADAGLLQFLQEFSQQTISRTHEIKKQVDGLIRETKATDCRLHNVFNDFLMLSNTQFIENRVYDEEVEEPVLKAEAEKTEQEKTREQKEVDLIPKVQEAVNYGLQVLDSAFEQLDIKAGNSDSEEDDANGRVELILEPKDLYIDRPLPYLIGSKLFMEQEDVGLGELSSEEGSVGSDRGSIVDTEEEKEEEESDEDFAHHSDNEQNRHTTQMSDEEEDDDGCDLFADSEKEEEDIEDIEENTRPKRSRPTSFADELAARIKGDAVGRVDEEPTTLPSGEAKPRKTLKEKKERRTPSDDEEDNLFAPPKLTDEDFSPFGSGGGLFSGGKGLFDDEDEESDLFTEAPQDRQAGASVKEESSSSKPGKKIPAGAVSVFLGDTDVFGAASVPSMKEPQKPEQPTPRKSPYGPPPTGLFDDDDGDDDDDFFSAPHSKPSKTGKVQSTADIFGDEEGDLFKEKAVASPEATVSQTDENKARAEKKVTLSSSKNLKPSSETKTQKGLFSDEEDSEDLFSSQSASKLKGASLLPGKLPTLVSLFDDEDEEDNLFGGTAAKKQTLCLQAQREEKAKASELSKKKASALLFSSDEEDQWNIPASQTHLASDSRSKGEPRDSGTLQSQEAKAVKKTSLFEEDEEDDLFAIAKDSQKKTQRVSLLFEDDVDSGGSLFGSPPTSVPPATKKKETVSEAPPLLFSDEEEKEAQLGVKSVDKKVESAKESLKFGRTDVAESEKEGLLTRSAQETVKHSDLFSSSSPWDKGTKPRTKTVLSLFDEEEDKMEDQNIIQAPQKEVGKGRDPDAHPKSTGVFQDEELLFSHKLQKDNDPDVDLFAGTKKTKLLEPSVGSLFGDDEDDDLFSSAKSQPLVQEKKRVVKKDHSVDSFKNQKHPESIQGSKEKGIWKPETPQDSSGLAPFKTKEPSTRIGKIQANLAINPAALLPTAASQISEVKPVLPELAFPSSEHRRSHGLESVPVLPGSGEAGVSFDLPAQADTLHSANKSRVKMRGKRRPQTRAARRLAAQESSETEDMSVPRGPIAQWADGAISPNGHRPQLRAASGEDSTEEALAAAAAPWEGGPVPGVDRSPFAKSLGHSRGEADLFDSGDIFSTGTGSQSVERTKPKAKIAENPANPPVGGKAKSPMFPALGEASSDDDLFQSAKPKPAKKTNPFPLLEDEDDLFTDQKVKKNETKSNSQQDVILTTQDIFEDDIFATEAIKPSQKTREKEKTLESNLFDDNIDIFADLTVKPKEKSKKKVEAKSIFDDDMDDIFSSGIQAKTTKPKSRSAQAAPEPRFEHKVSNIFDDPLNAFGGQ
UniProt Q6VEQ5: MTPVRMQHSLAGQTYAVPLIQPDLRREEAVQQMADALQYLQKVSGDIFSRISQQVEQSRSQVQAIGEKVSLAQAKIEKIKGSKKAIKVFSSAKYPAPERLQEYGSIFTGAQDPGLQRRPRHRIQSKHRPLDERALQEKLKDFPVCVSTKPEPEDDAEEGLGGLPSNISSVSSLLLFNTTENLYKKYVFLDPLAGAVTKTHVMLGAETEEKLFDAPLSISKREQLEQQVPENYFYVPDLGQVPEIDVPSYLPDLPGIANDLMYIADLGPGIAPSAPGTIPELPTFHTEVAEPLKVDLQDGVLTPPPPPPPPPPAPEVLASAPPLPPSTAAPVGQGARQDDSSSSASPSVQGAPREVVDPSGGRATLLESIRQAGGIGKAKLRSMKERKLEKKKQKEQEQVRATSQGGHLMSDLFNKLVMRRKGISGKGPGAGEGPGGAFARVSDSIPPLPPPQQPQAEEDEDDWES
UniProt P04004: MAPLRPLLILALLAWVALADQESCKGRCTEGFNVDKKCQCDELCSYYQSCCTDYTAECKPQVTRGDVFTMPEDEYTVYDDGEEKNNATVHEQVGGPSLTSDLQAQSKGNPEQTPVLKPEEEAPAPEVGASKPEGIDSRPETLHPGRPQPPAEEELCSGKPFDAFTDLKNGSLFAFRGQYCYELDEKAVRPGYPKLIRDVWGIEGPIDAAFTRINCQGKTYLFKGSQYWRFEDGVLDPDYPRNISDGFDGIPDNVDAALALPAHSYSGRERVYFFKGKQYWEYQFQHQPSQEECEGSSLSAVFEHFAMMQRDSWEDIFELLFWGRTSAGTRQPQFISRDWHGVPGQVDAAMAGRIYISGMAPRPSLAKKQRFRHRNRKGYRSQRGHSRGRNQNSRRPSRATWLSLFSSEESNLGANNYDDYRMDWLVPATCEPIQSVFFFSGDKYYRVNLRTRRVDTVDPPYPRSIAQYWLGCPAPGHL
UniProt Q6RFH5: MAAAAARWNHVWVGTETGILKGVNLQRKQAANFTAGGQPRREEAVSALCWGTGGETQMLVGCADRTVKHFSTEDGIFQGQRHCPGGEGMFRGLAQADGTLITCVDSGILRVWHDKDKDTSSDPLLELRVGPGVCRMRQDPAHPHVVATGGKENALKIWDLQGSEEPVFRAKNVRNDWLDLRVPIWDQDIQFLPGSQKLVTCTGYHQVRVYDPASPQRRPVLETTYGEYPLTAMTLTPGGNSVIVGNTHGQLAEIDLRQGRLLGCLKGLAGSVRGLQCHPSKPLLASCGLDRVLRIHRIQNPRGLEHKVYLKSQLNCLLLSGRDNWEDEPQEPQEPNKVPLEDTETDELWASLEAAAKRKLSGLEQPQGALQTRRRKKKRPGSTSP
UniProt Q8IWA0: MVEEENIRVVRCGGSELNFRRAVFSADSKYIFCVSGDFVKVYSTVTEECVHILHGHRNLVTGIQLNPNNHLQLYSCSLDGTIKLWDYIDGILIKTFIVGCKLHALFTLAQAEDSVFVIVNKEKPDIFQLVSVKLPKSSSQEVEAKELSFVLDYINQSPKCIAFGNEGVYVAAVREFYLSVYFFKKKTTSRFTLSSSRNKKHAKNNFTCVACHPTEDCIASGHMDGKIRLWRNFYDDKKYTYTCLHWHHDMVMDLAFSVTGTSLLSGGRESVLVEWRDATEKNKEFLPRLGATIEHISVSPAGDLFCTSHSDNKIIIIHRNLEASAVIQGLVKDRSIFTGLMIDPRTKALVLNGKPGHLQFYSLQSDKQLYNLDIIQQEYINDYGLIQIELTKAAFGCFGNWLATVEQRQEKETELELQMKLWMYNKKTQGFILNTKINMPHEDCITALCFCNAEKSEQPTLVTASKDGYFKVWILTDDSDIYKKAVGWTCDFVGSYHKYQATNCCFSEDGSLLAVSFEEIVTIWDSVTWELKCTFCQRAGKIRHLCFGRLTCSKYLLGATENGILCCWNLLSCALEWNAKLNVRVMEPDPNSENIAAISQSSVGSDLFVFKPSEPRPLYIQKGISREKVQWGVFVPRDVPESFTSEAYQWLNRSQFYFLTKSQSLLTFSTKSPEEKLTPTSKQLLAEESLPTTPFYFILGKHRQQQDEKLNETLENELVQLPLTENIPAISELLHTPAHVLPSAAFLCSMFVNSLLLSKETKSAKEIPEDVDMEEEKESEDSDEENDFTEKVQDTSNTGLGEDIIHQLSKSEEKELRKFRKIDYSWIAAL
UniProt Q6UXN9, whole entry, looked up: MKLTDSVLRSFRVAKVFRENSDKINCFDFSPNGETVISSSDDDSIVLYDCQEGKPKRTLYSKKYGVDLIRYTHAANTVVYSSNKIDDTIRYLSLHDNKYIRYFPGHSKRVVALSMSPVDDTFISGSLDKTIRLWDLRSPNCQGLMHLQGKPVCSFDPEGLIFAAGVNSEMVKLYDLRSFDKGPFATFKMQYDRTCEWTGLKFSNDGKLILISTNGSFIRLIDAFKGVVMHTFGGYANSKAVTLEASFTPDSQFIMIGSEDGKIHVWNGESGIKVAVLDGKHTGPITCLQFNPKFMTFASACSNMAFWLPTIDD
UniProt P98170, whole entry, looked up: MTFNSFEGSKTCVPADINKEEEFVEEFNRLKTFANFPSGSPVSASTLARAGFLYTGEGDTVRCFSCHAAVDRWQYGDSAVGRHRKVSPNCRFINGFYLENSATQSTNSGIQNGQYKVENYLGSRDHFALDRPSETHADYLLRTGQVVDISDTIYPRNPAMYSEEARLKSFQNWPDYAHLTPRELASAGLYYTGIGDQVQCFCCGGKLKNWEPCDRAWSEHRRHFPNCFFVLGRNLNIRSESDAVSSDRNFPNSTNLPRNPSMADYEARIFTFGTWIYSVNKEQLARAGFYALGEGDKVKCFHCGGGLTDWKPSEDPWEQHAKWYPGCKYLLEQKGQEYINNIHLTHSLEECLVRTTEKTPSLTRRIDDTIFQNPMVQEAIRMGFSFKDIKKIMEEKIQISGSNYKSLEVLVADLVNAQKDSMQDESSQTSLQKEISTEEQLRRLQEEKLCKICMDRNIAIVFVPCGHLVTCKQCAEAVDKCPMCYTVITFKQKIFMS
UniProt Q9H7M9, whole entry, looked up: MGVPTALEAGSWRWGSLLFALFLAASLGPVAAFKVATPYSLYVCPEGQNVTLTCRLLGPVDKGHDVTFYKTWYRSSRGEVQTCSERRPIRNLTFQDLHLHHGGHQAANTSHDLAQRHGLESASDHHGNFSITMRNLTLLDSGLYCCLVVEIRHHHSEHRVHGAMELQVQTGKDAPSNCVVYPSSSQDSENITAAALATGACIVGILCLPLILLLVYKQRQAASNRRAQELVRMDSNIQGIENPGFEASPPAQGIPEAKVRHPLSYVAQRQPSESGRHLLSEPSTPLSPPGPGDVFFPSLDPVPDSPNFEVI
UniProt Q2M389: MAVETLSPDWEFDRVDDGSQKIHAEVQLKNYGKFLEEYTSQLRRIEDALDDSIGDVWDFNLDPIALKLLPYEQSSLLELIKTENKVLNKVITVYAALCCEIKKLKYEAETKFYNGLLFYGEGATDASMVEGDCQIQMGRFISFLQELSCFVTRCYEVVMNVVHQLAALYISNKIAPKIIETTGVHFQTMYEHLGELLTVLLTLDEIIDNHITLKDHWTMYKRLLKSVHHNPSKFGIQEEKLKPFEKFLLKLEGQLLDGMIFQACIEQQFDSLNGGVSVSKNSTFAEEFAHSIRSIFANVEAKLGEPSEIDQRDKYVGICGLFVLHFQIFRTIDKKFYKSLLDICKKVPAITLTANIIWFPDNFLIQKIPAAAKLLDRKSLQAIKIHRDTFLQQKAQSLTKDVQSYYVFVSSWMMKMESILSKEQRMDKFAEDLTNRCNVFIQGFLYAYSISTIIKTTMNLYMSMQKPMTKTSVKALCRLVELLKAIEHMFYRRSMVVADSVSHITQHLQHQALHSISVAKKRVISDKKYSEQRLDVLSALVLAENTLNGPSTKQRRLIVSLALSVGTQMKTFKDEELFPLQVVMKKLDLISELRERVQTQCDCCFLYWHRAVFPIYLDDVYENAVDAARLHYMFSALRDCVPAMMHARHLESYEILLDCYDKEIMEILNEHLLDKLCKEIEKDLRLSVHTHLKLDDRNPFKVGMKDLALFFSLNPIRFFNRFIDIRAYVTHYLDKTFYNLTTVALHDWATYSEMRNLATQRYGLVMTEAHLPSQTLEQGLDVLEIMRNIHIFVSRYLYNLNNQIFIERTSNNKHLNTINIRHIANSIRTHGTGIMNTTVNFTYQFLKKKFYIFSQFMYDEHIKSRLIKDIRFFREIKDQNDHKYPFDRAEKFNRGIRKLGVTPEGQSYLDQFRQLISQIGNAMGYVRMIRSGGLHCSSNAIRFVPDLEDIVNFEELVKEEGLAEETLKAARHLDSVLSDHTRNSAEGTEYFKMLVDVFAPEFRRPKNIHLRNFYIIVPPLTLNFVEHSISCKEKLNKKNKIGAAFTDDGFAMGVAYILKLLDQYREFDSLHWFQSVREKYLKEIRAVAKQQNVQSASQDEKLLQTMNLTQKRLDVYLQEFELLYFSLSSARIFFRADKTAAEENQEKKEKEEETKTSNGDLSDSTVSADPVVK
UniProt O00534: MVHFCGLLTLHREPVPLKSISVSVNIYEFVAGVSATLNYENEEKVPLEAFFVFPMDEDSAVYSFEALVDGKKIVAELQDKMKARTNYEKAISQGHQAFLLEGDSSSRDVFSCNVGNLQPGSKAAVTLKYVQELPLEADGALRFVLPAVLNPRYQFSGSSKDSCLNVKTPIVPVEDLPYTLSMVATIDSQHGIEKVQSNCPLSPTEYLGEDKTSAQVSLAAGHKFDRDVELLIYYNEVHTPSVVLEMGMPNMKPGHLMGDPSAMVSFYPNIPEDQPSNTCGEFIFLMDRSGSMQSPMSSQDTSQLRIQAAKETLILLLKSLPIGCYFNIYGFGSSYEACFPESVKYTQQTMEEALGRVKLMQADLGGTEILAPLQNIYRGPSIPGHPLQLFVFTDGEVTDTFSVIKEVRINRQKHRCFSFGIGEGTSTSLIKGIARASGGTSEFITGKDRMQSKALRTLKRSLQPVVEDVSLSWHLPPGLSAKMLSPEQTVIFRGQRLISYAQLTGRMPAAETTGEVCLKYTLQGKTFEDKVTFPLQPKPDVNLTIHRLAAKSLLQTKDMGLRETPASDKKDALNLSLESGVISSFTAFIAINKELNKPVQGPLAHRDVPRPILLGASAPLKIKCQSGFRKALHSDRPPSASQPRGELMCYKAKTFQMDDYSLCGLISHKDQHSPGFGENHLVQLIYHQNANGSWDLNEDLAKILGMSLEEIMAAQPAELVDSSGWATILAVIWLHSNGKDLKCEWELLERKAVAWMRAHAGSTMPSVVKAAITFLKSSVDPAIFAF

[2] = compound: CS(=O)(=O)N1CCN(Cc2cc3nc(-c4cccc5[nH]ncc45)nc(N4CCOCC4)c3s2)CC1 [pictilisib]
Summary of the method: as §1

[3] = compound: C[C@@H](Oc1cc(-c2cnn(C3CCNCC3)c2)cnc1N)c1c(Cl)ccc(F)c1Cl [crizotinib]
Summary of the method: as §1

[4] = compound: C[C@H](C1=CC=C(C=C1)C(=O)NC2=C3C=CNC3=NC=C2)N
Summary of the method: as §1

[5] = compound: C[C@H](Nc1ncnc2nc[nH]c12)c1cc2cccc(Cl)c2c(=O)n1-c1ccccc1 [duvelisib]
Summary of the method: as §1

[6] = compound: Cc1cc(Nc2cc(CN3CCOCC3)c3nc(C)c(Cc4ccc(Cl)cc4F)n3n2)n[nH]1 [gandotinib]
Summary of the method: as §1

[7] = compound: Cc1cc(Nc2cc(N3CCN(C)CC3)nc(Sc3ccc(NC(=O)C4CC4)cc3)n2)n[nH]1 [tozasertib]
Summary of the method: as §1

[8] = compound: Cc1ccc(-n2nc(C(C)(C)C)cc2NC(=O)Nc2ccc(OCCN3CCOCC3)c3ccccc23)cc1 [doramapimod]
Summary of the method: as §1

[9] = compound: Cc1ccc(NC(=O)c2ccc(CN3CC[C@H](N(C)C)C3)c(C(F)(F)F)c2)cc1Nc1nccc(-c2cncnc2)n1 [bafetinib]
Summary of the method: as §1

[10] = compound: Cc1cccc(CC(=O)N2CCc3c2ccc(-c2cn(C)c4ncnc(N)c24)c3F)n1
Summary of the method: as §1

Measured: log2 fold change

VPS26C (UniProt O14972)
inactive: [1] -0.017 | [2] -0.012 | [3] -0.059 | [4] -0.167 | [5] 0.215 | [6] 0.001 | [7] 0.023 | [8] 0.086 | [9] -0.156 | [10] 0.064

WDR5 (UniProt P61964)
inactive: [1] -0.027 | [2] 0.011 | [3] -0.04 | [4] -0.16 | [5] -0.018 | [6] 0.137 | [7] -0.041 | [8] -0.089 | [9] -0.043 | [10] 0.111

WDR45B (UniProt Q5MNZ6)
inactive: [1] -0.007 | [2] -0.014 | [3] 0.006 | [4] -0.036 | [5] 0.035 | [6] 0.037 | [7] -0.054 | [8] -0.04 | [9] 0.028 | [10] 0.03

WASHC2A (UniProt Q641Q2)
inactive: [1] 0.013 | [2] 0.005 | [3] 0.004 | [4] -0.022 | [5] -0.013 | [6] 0.026 | [7] 0.016 | [8] -0.009 | [9] -0.013 | [10] -0.001

WDR4 (UniProt P57081)
inactive: [1] -0.014 | [2] -0.022 | [3] -0.048 | [4] 0.017 | [5] 0.032 | [6] -0.049 | [7] -0.016 | [8] 0.055 | [9] -0.008 | [10] -0.036

Taken from the entries so far (two entries):
WASHC2A (UniProt Q641Q2)
inactive: [1] 0.013 | [2] 0.005 | [3] 0.004 | [4] -0.022 | [5] -0.013 | [6] 0.026 | [7] 0.016 | [8] -0.009 | [9] -0.013 | [10] -0.001

WDR4 (UniProt P57081)
inactive: [1] -0.014 | [2] -0.022 | [3] -0.048 | [4] 0.017 | [5] 0.032 | [6] -0.049 | [7] -0.016 | [8] 0.055 | [9] -0.008 | [10] -0.036

Later entries.

WASH2P (UniProt Q6VEQ5)
inactive: [1] -0.022 | [2] -0.074 | [3] -0.003 | [4] 0.016 | [5] -0.008 | [6] 0.016 | [7] 0.068 | [8] -0.013 | [9] -0.062 | [10] -0.046

WDR24 (UniProt Q96S15)
inactive: [1] -0.004 | [2] 0.104 | [3] -0.006 | [4] -0.072 | [5] 0.004 | [6] 0.072 | [7] 0.065 | [8] -0.166 | [9] -0.134 | [10] 0.125

VTN (UniProt P04004)
inactive: [1] -0.057 | [2] 0.026 | [3] 0.019 | [5] 0.018 | [6] 0.164 | [7] -0.006 | [8] -0.023 | [9] -0.054 | [10] 0.148
active: [4] -0.384

WDR26, A0A499FIZ0
inactive: [1] -0.001 | [2] -0.006 | [3] -0.016 | [4] -0.025 | [5] 0.016 | [6] -0.025 | [7] -0.008 | [8] 0.051 | [9] 0.006 | [10] 0.015

WDR74 (UniProt Q6RFH5)
inactive: [1] 0.046 | [2] -0.038 | [3] -0.036 | [4] -0.027 | [5] 0.032 | [6] -0.019 | [7] -0.023 | [8] 0.013 | [9] -0.06 | [10] 0.002

WDR20 isoform 7 (UniProt Q8TBZ3)
inactive: [1] 0.015 | [2] -0.006 | [3] -0.069 | [5] 0.043 | [6] -0.009 | [7] 0 | [8] -0.022 | [9] 0.07 | [10] 0.081
active: [4] -0.416

WDR12 (UniProt Q9GZL7)
inactive: [1] -0.01 | [2] -0.004 | [3] 0.028 | [4] -0.044 | [5] -0.006 | [6] 0.041 | [7] -0.015 | [8] 0.031 | [9] -0.02 | [10] 0.009

WDR75 (UniProt Q8IWA0)
inactive: [1] -0.001 | [2] -0.036 | [3] -0.131 | [4] -0.073 | [5] 0.009 | [6] 0.069 | [7] 0.001 | [8] -0.03 | [9] -0.052 | [10] -0.027

VPS8 (UniProt Q8N3P4)
inactive: [1] -0.044 | [2] -0.023 | [3] -0.007 | [4] -0.064 | [5] 0.01 | [6] -0.073 | [7] 0.053 | [8] 0.002 | [9] -0.055 | [10] 0.076

WDR33 (UniProt Q9C0J8)
inactive: [1] -0.012 | [2] -0.033 | [3] -0.023 | [4] -0.037 | [5] 0.015 | [6] 0.043 | [7] 0.047 | [8] 0.013 | [9] 0.006 | [10] 0.032

WDR82 (UniProt Q6UXN9)
inactive: [1] -0.027 | [2] -0.009 | [3] 0.017 | [4] -0.017 | [5] 0.005 | [6] -0.03 | [7] -0.018 | [8] 0.018 | [9] -0.023 | [10] -0.016

WDR7 (UniProt Q9Y4E6)
inactive: [1] -0.029 | [2] -0.037 | [3] -0.058 | [4] -0.076 | [5] -0.008 | [6] 0.014 | [7] -0.012 | [8] 0.043 | [9] -0.04 | [10] 0.085

VPS26A (UniProt O75436)
inactive: [1] -0.013 | [2] -0.017 | [3] -0.033 | [4] -0.083 | [5] -0.004 | [6] 0.058 | [7] -0.014 | [8] -0.006 | [9] -0.013 | [10] 0.02

VPS13A (UniProt Q96RL7)
inactive: [1] -0.001 | [2] 0.029 | [3] -0.026 | [4] 0.004 | [5] 0.036 | [6] -0.043 | [7] 0.056 | [8] -0.087 | [9] -0.044 | [10] 0.12

WDSUB1 (UniProt Q8N9V3)
inactive: [1] 0 | [2] 0.012 | [3] 0.003 | [4] -0.06 | [5] -0.02 | [6] 0.074 | [7] -0.007 | [8] 0.009 | [9] -0.047 | [10] 0.038

XIAP (UniProt P98170)
inactive: [1] 0.023 | [2] -0.019 | [3] -0.03 | [4] -0.062 | [5] 0.005 | [6] 0.03 | [7] 0.006 | [8] 0.046 | [9] -0.011 | [10] 0.102

VPS26B (UniProt Q4G0F5)
inactive: [1] -0.008 | [2] -0.04 | [3] -0.026 | [4] -0.128 | [5] 0.03 | [6] 0.041 | [7] 0.027 | [8] 0.044 | [9] -0.013 | [10] 0.055

WIZ isoform 3 (UniProt O95785)
inactive: [1] 0.001 | [2] -0.009 | [3] 0.018 | [4] -0.061 | [5] 0.001 | [6] 0.003 | [7] 0.038 | [8] -0.003 | [9] -0.042 | [10] 0.003

WDR45 isoform 2 (UniProt Q9Y484)
inactive: [1] -0.002 | [2] -0.011 | [3] -0.048 | [5] -0.04 | [6] -0.051 | [7] -0.025 | [8] 0.054 | [9] -0.047 | [10] 0.179
active: [4] -0.229

VSIR (UniProt Q9H7M9)
inactive: [1] 0.004 | [2] 0.036 | [3] 0.09 | [4] -0.069 | [5] 0.012 | [6] 0.034 | [7] -0.008 | [8] 0.033 | [9] 0.01 | [10] -0.026

WASHC4 (UniProt Q2M389)
inactive: [1] 0 | [2] -0.039 | [3] -0.045 | [4] -0.01 | [5] 0.04 | [6] 0.017 | [7] 0.005 | [8] 0.049 | [9] -0.068 | [10] 0.033

VRK1 (UniProt Q99986)
inactive: [1] -0.005 | [2] 0.002 | [3] -0.023 | [4] 0.172 | [5] 0.013 | [6] -0.078 | [7] -0.052 | [8] -0.052 | [9] -0.042 | [10] -0.014

VPS18 (UniProt Q9P253)
inactive: [1] 0.009 | [2] -0.017 | [3] -0.049 | [4] -0.056 | [5] -0.04 | [6] -0.032 | [7] -0.003 | [8] -0.004 | [9] -0.06 | [10] 0.047

VWA5A (UniProt O00534)
inactive: [1] -0.027 | [2] -0.039 | [3] -0.001 | [4] -0.136 | [5] -0.035 | [6] 0.054 | [7] 0.009 | [8] -0.002 | [9] -0.01 | [10] 0.048

VPS16 (UniProt Q9H269)
inactive: [1] -0.014 | [2] 0.005 | [3] -0.08 | [4] -0.019 | [5] 0.013 | [6] -0.024 | [7] 0.004 | [8] -0.013 | [9] -0.051 | [10] 0.03

— the supplement of paper PMC10849652
